Measurements taken from patent US20160200804A1.
Results are given in words; binding and its absence hold for the method and conditions named. In cells and extracts the contact can be indirect. Some binding calls cover weakened binding; strength is not graded here.

By UniProt entry, the sequences of proteins in these tests, tags left out. Where a name states a change or a piece, a line headed by the entry shows the natural chain unless it says otherwise. Residues count along the entry.
UniProt P05787: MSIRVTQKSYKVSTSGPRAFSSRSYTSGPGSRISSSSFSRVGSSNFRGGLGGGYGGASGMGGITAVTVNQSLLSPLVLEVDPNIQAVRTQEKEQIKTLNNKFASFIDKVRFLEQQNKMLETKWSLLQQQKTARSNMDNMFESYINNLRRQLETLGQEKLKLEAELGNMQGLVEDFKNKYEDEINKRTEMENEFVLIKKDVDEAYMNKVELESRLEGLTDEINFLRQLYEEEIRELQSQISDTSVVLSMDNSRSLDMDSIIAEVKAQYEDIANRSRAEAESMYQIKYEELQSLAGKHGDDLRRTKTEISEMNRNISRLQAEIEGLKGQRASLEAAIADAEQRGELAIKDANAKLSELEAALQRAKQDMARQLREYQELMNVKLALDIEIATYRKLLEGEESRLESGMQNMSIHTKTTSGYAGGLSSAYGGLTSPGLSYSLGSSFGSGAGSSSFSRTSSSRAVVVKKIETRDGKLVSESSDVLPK
UniProt P07355, residues 2-339: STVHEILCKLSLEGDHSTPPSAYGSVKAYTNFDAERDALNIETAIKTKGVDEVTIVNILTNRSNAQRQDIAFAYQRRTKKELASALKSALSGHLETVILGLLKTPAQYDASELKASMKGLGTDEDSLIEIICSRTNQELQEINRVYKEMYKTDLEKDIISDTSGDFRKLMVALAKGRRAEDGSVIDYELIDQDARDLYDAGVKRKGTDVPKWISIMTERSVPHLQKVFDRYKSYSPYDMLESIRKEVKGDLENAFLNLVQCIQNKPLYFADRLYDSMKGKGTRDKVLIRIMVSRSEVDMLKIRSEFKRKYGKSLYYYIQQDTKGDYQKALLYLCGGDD

Tests used:
[1] = target: cytokeratin-8 (CK8) (human) (UniProt P05787); assay: co-immunoprecipitation
[2] = target: cytokeratin-8 (CK8) (human) (UniProt P05787); assay: reciprocal co-immunoprecipitation from ACT1 lysate (anti-keratin-8 and anti-annexin-A2 beads) with western blot; annexin-A2 also sequenced by MS/MS in the keratin-8 immunoprecipitate

binding [1]: binds
binding [2]: binds
Substance: annexin-A2 (from UniProt P07355 2-339)
